Square brackets hold non-standard residues; d marks the D form. * marks the point of attachment. Arg(NO2) = N=C(NCCC[C@H](N)C(=O)O)N[N+](=O)[O-]; Cbz = O=C(OCc1ccccc1)*; Boc = CC(C)(C)OC(=O)*; OBn = c1ccc(CO*)cc1; Sar = CNCC(=O)O
Assay: general procedure: solution-phase peptide synthesis; HATU/Et3N; DCC/HOBt
Conditions: coupling step, AcOH

Substance	step yield [%]	final HPLC purity [%]
Boc-VYIHP[dA]-OBn	71	100
Z-Sar-Arg(NO2)-Val-Tyr-Ile-His-Pro-(D)Ala-OBn	51	98.4
Cbz-[Sar][Arg(NO2)]VYI-OH	81	97.1

From patent US9611293 (dated 2017)
